According to paper PMC3116909:
Results are given in words; binding and its absence hold for the method and conditions named. Binding seen in cells or lysates may run through a third protein.

Chains of the proteins cited; added tags and fusions are not shown.
UniProt Q96EB6: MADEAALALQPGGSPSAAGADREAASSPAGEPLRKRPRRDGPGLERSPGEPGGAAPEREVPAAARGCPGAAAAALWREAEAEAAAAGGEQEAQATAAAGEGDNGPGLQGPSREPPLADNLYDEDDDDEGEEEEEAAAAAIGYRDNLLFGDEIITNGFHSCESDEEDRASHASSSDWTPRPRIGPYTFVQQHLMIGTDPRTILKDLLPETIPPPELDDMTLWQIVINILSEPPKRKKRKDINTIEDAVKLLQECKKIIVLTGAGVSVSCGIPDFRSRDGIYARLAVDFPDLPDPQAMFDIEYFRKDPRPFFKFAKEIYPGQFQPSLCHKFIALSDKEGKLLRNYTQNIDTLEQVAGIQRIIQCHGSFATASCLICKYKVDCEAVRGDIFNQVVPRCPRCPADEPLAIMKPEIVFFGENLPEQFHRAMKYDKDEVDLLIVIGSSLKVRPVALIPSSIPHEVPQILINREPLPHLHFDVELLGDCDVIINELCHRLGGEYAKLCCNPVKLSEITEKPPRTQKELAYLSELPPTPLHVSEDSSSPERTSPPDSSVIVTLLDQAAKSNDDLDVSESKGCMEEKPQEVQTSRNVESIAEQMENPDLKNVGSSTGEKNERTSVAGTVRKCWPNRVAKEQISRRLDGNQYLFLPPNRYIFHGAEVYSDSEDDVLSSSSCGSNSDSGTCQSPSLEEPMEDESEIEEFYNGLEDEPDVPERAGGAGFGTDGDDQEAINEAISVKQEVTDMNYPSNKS

Target: SIRT1 (UniProt Q96EB6)
Experiment: co-IP; HEK 293 cells transiently transfected for 36 hours; 0.5 mg of nuclear protein incubated overnight with 2 µg of antibody against one partner or control IgG; eluted proteins immunoblotted

B1: Miz1 (protein, UniProt Q13105 1-803)
chain: MDFPQHSQHVLEQLNQQRQLGLLCDCTFVVDGVHFKAHKAVLAACSEYFKMLFVDQKDVVHLDISNAAGLGQVLEFMYTAKLSLSPENVDDVLAVATFLQMQDIITACHALKSLAEPATSPGGNAEALATEGGDKRAKEEKVATSTLSRLEQAGRSTPIGPSRDLKEERGGQAQSAASGAEQTEKADAPREPPPVELKPDPTSGMAAAEAEAALSESSEQEMEVEPARKGEEEQKEQEEQEEEGAGPAEVKEEGSQLENGEAPEENENEESAGTDSGQELGSEARGLRSGTYGDRTESKAYGSVIHKCEDCGKEFTHTGNFKRHIRIHTGEKPFSCRECSKAFSDPAACKAHEKTHSPLKPYGCEECGKSYRLISLLNLHKKRHSGEARYRCEDCGKLFTTSGNLKRHQLVHSGEKPYQCDYCGRSFSDPTSKMRHLETHDTDKEHKCPHCDKKFNQVGNLKAHLKIHIADGPLKCRECGKQFTTSGNLKRHLRIHSGEKPYVCIHCQRQFADPGALQRHVRIHTGEKPCQCVMCGKAFTQASSLIAHVRQHTGEKPYVCERCGKRFVQSSQLANHIRHHDNIRPHKCSVCSKAFVNVGDLSKHIIIHTGEKPYLCDKCGRGFNRVDNLRSHVKTVHQGKAGIKILEPEEGSEVSVVTVDDMVTLATEALAATAVTQLTVVPVGAAVTADETEVLKAEISKAVKQVQEEDPNTHILYACDSCGDKFLDANSLAQHVRIHTAQALVMFQTDADFYQQYGPGGTWPAGQVLQAGELVFRPRDGAEGQPALAETSPTAPECPPPAE
In the case of B1, the binding is reported as “no binding”.
